Reference: PubChem BioAssay AID330 (DTP/NCI, 2004)
The list is a part of this screen's results and no random one: it gathers tests that were run many times, whatever their T/C, doses with no T/C, and many T/C values between a quarter and a half above the control. Further doses and runs are listed elsewhere. T/C gives the treated animals as a percentage of the vehicle group. Some doses have a count of surviving animals in place of a T/C: the source holds a T/C of zero for them, seemingly a mark for toxic or unscored doses. Some survivor counts are full or nearly so, which does not show that the dose was tolerated: survival well below the control is almost never listed, so the zero probably covers shortened survival too. Survivors were counted at the toxicity check, usually on the fifth day, unless a day is given; later deaths do not show. Schedule codes are those of the source, read here as Q, the interval in days (D) or hours (H), X, the number of doses. Where survival is the endpoint, the PubChem record calls one and a half times the control and up active, and a quarter to a half above the control has no call in these data; cut-offs in other NCI protocols can differ.

System: P388 leukemia ip, CD2F1 mice, survival T/C
Test: NCI In Vivo Anticancer Drug Screen. Data for tumor model P388 Leukemia (intraperitoneal) in CD2F1 (CDF1) mice
Settings: T/C endpoint: median survival time, higher T/C = longer survival
[1] = dose: 120.0 mg/kg/injection, schedule: Q01DX005 (ip), vehicle: saline with Tween-80

Structure (SMILES): CCCCS(=O)CC(CO)NC(=O)/C=C/c1c(C)[nH]c(=O)[nH]c1=O (stereo unspecified)
- T/C (dose: 1.2 mg/kg/injection, schedule: Q01DX009 (ip), vehicle: water): 149 % of control
- T/C (dose: 1.25 mg/kg/injection, schedule: Q01DX009 (ip), vehicle: water): 139 % of control
- T/C (dose: 2.4 mg/kg/injection, schedule: Q01DX009 (ip), vehicle: water): 149 % of control
- T/C (dose: 2.5 mg/kg/injection, schedule: Q01DX009 (ip), vehicle: water): 148 % of control
- survivor count (dose: 10.0 mg/kg/injection, schedule: Q01DX009 (ip), vehicle: water): 3 of 6

Structure (SMILES): O=C(N=c1sc2ccccc2s1)N=c1sc2ccccc2s1
- survivor count (dose: 120.0 mg/kg/injection, schedule: Q01DX005 (ip), vehicle: Klucel (hydroxypropylcellulose) (HPC)): 6 of 6
- survivor count (dose: 240.0 mg/kg/injection, schedule: Q01DX005 (ip), vehicle: Klucel (hydroxypropylcellulose) (HPC)): 1 of 6

Structure (SMILES): CCCCc1c(OC(=O)N(C)C)c(C#N)c2n(C)c3ccccc3n2c1=O
- survivor count [1]: 6 of 6

Structure (SMILES): O=C(CCc1ccc(O)c(O)c1)c1ccc(O)c(O)c1O
- T/C (dose: 64.0 mg/kg/injection, schedule: Q01DX009 (ip), vehicle: saline): 126 % of control

Structure (SMILES): CN(C)CCCn1ncc(Sc2cc([N+](=O)[O-])ccc2N)c(Cl)c1=O
- survivor count [1]: 1 of 6
- survivor count (dose: 240.0 mg/kg/injection, schedule: Q01DX005 (ip), vehicle: saline with Tween-80): 0 of 6
